Data taken from PubChem BioAssay AID651558 (National Center for Advancing Translational Sciences (NCATS), 2012).
About 480 (40%) of roughly 1,200 compounds were called active. Inconclusive means that the source gave no clear call. Such entries were picked first, then a sample of the others. Calls follow the shape of the dose curve; as a rule, active = well fitted inhibition curve with a large enough effect; inconclusive = small, poorly fitted or top-dose-only effect; inactive = no such curve, though single readings can be large or run the other way. Potencies of inconclusive entries are doubtful fits and often do not repeat.

Experiment: qHTS Assay to Find Inhibitors of Chronic Active B-Cell Receptor Signaling: Hit Validation in Primary Screen; also: nearly all actives have a fitted effect of over 75% in size
Settings: ABC-DLBCL IkB-luc/CBR ratio luminescence, 4 h; series mostly up to 46.1 µM
Summary of the method: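 TMD8 ABC-DLBCL cells carrying doxycycline-inducible IkBa-green luciferase fusion and free red luciferase, 0.5% FBS, dosed 46 uM–3 nM with doxycycline for 4 h at 37C. Green/red luminescence ratio normalized to basal and 10 uM MG-132.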
Potency is read from the fitted curve at half-maximal effect.

| Structure (SMILES) | Potency |
| --- | --- |
| O=[N+]([O-])c1ccc(Sc2nc3ccccc3o2)c([N+](=O)[O-])c1 | inconclusive: 4.11 µM [inhibitor, single point] |
| COc1ccc(C(=O)/C=C/c2ccc(OC)c(Cn3nnc4ccccc43)c2)cc1 | inconclusive: 16.4 µM [inhibitor, partial curve] |
| Oc1[nH]c2c(Cl)cc(Cl)cc2c1N=NC(=S)NCC1CCCO1 (centres undefined) | inconclusive: 7.31 µM [inhibitor, partial curve] |
| S=c1nn[nH]n1C12CC3CC(CC(C3)C1)C2 | inconclusive: 6.51 µM [inhibitor, partial curve] |
| CCc1cc2c(SCC(=O)NC3CC3)ncnc2s1 | inactive |
| CCOC(=O)c1c(C)n(C)c2ccc(OC)c(NC(=O)CN3CCC4(CC3)OCCO4)c12 | inconclusive: 18.4 µM [inhibitor, partial curve] |
| O=[N+]([O-])/C=C/c1cc2ccccc2[nH]1 | inconclusive: 23.1 µM [inhibitor, partial curve, poor fit] |
| COc1ccccc1C1C2=C(COC2=O)Nc2cc3c(cc21)OCO3 (centres undefined) | active: 1.3 µM |
| COc1ccc(/C=C/C(=O)c2ccc(C(=O)/C=C/c3ccc(OC)c(OC)c3)cc2)cc1OC | inconclusive: 8.2 µM [inhibitor, partial curve] |
| Cc1nc(N2N=C(c3ccc(Cl)cc3)CC2c2ccco2)sc1C(=O)N(C)C (centres undefined) | inconclusive: 14.6 µM [inhibitor, partial curve] |
| NC(=S)N/N=C1\CC(c2ccc3c(c2)OCCCO3)Oc2ccc(F)cc21 (centres undefined) | inconclusive: 18.4 µM [inhibitor, single point] |
| Clc1ccc2nc(-c3ccccc3)nc(C(Cl)Cl)c2c1 | active: 4.61 µM |
| CCOCCCNC(=O)c1ccc2c(c1)N=C(CC)c1cc(Br)ccc1S2 | active: 0.259 µM |
| CCC1=Nc2cc(C(=O)NCCCOC(C)C)ccc2Sc2ccc(C)cc21 | active: 2.59 µM |
| COc1ccc(-c2cnnn2-c2ccc(NC(=O)c3ccc(S(=O)(=O)N4CCCCC4)cc3)cc2)cc1OC | inconclusive: 1.03 µM [inhibitor, full curve] |
| COc1ccccc1CNC(=O)CSC(=S)N1CCCC1 | inconclusive: 13 µM [inhibitor, partial curve] |
| Fc1cccc2sc(Nc3nnc(-c4ccccc4)o3)nc12 | active: 0.13 µM |
| Fc1ccc(/C=N/NC(=S)Nc2cccnc2)cc1 | inactive |
| COc1cc(/C(C)=N/NC(=S)NC(C)C)cc(OC)c1OC | inconclusive: 9.2 µM [inhibitor, partial curve] |
| COc1ccccc1OCCCN1C(=O)C(=O)c2cccc(C)c21 | inactive |
| Cc1ccc(C)c(/C=C/C(=O)c2ccccc(=O)c2O)c1 | inconclusive: 20.6 µM [inhibitor, single point] |
| Cc1c(CCC(=O)N2CCC(C(=O)O)CC2)c(=O)oc2cc3oc4c(c3cc12)CCCC4 | inconclusive: 16.4 µM [inhibitor, partial curve] |
| Cn1nnnc1N=N/C(=N/Nc1ccccc1)c1ccccc1 | inconclusive: 20.6 µM [inhibitor, single point] |
| COc1ccc(CC2(CO)CCN(Cc3cccc4nccnc34)CC2)cc1 | inactive |
| CCOC(=O)C1=C(O)/C(=C/c2ccc(OCC(=O)O)c(OCC)c2)SC1=Nc1ccccc1 | inactive |

| Structure (SMILES) | Potency |
| --- | --- |
| CCC(=C/c1sc2ccc3ccccc3c2[n+]1C)/C=C1\Sc2ccc3ccccc3c2N1C | inconclusive: 0.517 µM [inhibitor, full curve] |
| OC(CNCc1ccc(-c2ccccc2)cc1)c1ccccc1 (centres undefined) | inconclusive: 23.1 µM [inhibitor, single point] |
| Cn1nc(C(F)(F)F)c(/C=N/OC(=O)c2ccccc2)c1Sc1ccc(Cl)cc1 | inconclusive: 13 µM [inhibitor, partial curve] |
| C=CCNC(=S)NN=C1CCCCCCC1 | inactive |
| Cc1ccccc1NC(=S)N=Nc1c(O)n(C)c2ccc(S(=O)(=O)N3CCOCC3)cc12 | inconclusive: 9.2 µM [inhibitor, partial curve] |
| Cc1ccc(S(=O)(=O)N2CCCCC2CCNC(=O)C(=O)NCc2ccccc2)cc1 (centres undefined) | inconclusive: 23.1 µM [inhibitor, single point] |
| CNC(=S)N/N=C1\C(=O)c2cccc3cccc1c23 | active: 18.4 µM |
| CCN(CC)c1ccc(-c2nn3c(-c4n[nH]c5c4CCC5)nnc3s2)cc1 | active: 0.651 µM |
| COc1cc(NC(=O)c2cc(C(C)C)on2)cc(OC)c1OC | inconclusive: 16.4 µM [inhibitor, partial curve, poor fit] |
| O=C(CSc1cccc[n+]1[O-])c1cc(Cl)ccc1Cl | inconclusive: 20.6 µM [inhibitor, partial curve, poor fit] |
| COc1ccc(OC)c(-c2cc(C(=O)Nc3c(C)nn(Cc4ccccc4)c3C)no2)c1 | inconclusive: 4.61 µM [inhibitor, partial curve] |
| Oc1ccc(-c2nc3cnccn3c2Nc2ccc3c(c2)OCCO3)cc1 | active: 23.1 µM |
| CCOC(=O)C(C)N1C(=O)S/C(=C/c2ccc3c(c2)n(C)c(=O)n3C)C1=O (centres undefined) | active: 18.4 µM |
| Cc1cc(=O)c(C(=O)Nc2cccc(N3CCCC3=O)c2)nn1-c1ccccc1Cl | inconclusive: 16.4 µM [inhibitor, partial curve] |
| Cc1cc2nc(/C=C/c3cccnc3)[nH]c2cc1C | active: 1.03 µM |
| COc1cc(C2Nc3ccccc3C(=O)N2c2ccc(Cl)cc2)c(Cl)cc1OCC(=O)O (centres undefined) | inconclusive: 7.31 µM [inhibitor, partial curve] |
| NNC(=O)c1[nH]c2ccc([N+](=O)[O-])cc2c1-c1ccccc1 | inactive |
| N#CC(C#N)=C(N)CSc1cccc[n+]1[O-] | inactive |
| Cc1ccc(N=Nc2c(C)[nH]n(C(N)=S)c2=O)cc1 | inactive |
| COCCNC(=S)N/N=C(\C)c1ccc(Cl)c(Cl)c1Cl | inactive |
| COc1cc(OC)cc(C(=O)NCC(=O)Nc2ccc(-c3ccccc3)cc2)c1 | active: 20.6 µM |
| CCCCC[C@H](O)/C=C/[C@H]1CCC(=O)[C@@H]1CCCCCCC(=O)N1CCCCC1CO (some centres undefined) | inconclusive: 0.517 µM [inhibitor, full curve] |
| Oc1ccc(NCc2cccc(OCc3ccccc3)c2)cc1 | inactive |
| S=c1c2c(nc3nc[nH]n13)CCC2 | inactive |
| Cc1ccc(NC(=S)NC(=O)C2CC2)cc1Cl | inconclusive: 16.4 µM [inhibitor, partial curve] |

Single entries from the results shown.
Entry of CCOC(=O)C(C)N1C(=O)S/C(=C/c2ccc3c(c2)n(C)c(=O)n3C)C1=O (centres undefined) under Potency: active: 18.4 µM
Entry of CCC(=C/c1sc2ccc3ccccc3c2[n+]1C)/C=C1\Sc2ccc3ccccc3c2N1C under Potency: inconclusive: 0.517 µM [inhibitor, full curve]
Entry of Cc1cc(=O)c(C(=O)Nc2cccc(N3CCCC3=O)c2)nn1-c1ccccc1Cl under Potency: inconclusive: 16.4 µM [inhibitor, partial curve]
Entry of COc1cc(OC)cc(C(=O)NCC(=O)Nc2ccc(-c3ccccc3)cc2)c1 under Potency: active: 20.6 µM

Continued:

| Structure (SMILES) | Potency |
| --- | --- |
| COc1cc(OC)cc(C(=O)N2CC(=O)Nc3ccccc32)c1 | active: 14.6 µM |
| NC(=S)n1[nH]c(-c2ccc([N+](=O)[O-])cc2)c(N=Nc2cccc(Cl)c2)c1=O | inconclusive: 10.3 µM [inhibitor, partial curve] |
| N=C1S/C(=C\c2ccc(-c3cccc(Cl)c3)o2)C(=O)N1c1nccs1 | inconclusive: 18.4 µM [inhibitor, single point] |
| COc1ccc(-c2nn(C)c(=O)c3ccccc23)cc1CNS(C)(=O)=O | inactive |
| CCCCN1C(=O)N(C)C2C1N(C)C(=O)N2CCCC (centres undefined) | inactive |
| CCc1ccc(/C=N/NC(=O)c2cc(C3CC3)nc3ccccc23)s1 | active: 16.4 µM |
| COc1ccccc1NS(=O)(=O)c1ccc(-c2cnc(C3CC3)o2)cc1 | inactive |
| N#C/C(=C\c1ccc(Cl)cc1)c1nc2ccccc2o1 | inactive |
| N#CCN1C(=S)N=C(Nc2cccc(Cl)c2)C12CCCCC2 | inconclusive: 10.3 µM [inhibitor, partial curve] |
| CCCCC[C@H](O)/C=C/[C@@H]1[C@@H](C/C=C\CCCC(=O)O)[C@H]2CO[C@@H]1C2 | inconclusive: 7.31 µM [inhibitor, partial curve] |
| COc1cc(C2C(C#N)=C(N)Oc3cc(N(C)C)ccc32)cc2c1OCO2 (centres undefined) | inconclusive: 0.231 µM [inhibitor, full curve] |
| CN(C)c1ccc2c(c1)OC(N)=C(C#N)C2c1cccc(F)c1 (centres undefined) | active: 0.82 µM |
| CC(C)(C)C(=O)NC(=S)NNC(=O)c1ccc(-c2ccccc2)cc1 | inconclusive: 11.6 µM [inhibitor, partial curve] |
| Cc1cc(Cl)n2c(nc3cc(F)c(F)cc32)c1C#N | inconclusive: 4.61 µM [inhibitor, partial curve, poor fit] |
| O=C(NC(=S)N1CCN(c2ccc(Cl)cc2[N+](=O)[O-])CC1)c1cccs1 | inconclusive: 23.1 µM [inhibitor, single point] |
| CCCSc1nnc(Sc2nnnn2-c2ccccc2)s1 | inconclusive: 20.6 µM [inhibitor, single point] |
| CC1=Nc2ccccc2/C1=C\c1sc(Nc2ccc(C)cc2)nc1O | inconclusive: 0.92 µM [inhibitor, full curve] |
| COc1ccc(C2=Nn3c(nnc3-c3ccccn3)SC2)cc1OC | inactive |
| C/C(=N\NC(=S)NCCc1ccccc1)c1cccc(Br)c1 | inactive |
| COCCCn1c(N)c(-c2nc3ccccc3n2C)c2nc3ccccc3nc21 | inconclusive: 23.1 µM [inhibitor, partial curve, poor fit] |
| COc1ccc(/C=N/n2c(=S)n(C)c3ccccc32)cc1OC | inconclusive: 11.6 µM [inhibitor, partial curve] |
| COc1cc(C)nc(NCc2ccccc2)n1 | inconclusive: 23.1 µM [inhibitor, partial curve, poor fit] |
| COc1cc2c(cc1OC)C(C)N(C(=O)c1cc(C)on1)CC2 (centres undefined) | active: 5.8 µM |
| COc1ccc(C(=O)N(C)Cc2cnn(Cc3ccccc3)c2)cc1S(=O)(=O)N1CCOCC1 | inconclusive: 16.4 µM [inhibitor, partial curve] |
